The list shows a part of the results.

The target of the assay is Genome polyprotein (Poliovirus type 1 (strain Mahoney)) (UniProt P03300). In words: inhibitors of poliovirus polymerase RNA elongation – biochemical, fluorescence polarization, total intensity, primary screen (AID 588519). The settings on record: stronger effect = lower value; % elongation: measured here: total intensity read-out, compound at 16.7 µg/mL; z-score: measured here: FP z-score. On the technique in general: In fluorescence polarisation assays a small probe gives low polarisation when free and higher when bound to something large.
As for `FC(F)(F)Oc1ccc(NC2CCNCC2)cc1`, the % elongation is 104% and the z-score is -1.2.

In the case of `NC(=O)C1(Nc2ccc(F)cc2)CCNCC1`, the % elongation stood at 104% and the z-score stood at 0.2.

Regarding `Cc1ccc(C(=O)NCC2(N(C)C)CCCCC2)o1`, the % elongation stood at 106% and the z-score came to 0.3.

For `CCCCOc1ccccc1C(=O)NCC1(N2CCOCC2)CCCCC1`, the % elongation came to 102% and the z-score is -0.3.

In the case of `O=C(NCC1(N2CCOCC2)CCCCC1)c1ccccc1Br`, the % elongation stood at 106% and the z-score is -2.

With `c1ccc(CN2CCC(Nc3ccc4c(c3)OCO4)CC2)cc1`, the % elongation was 105% and the z-score was -1.7.

Regarding `Cn1nc(C(=O)NCC2(N3CCCCC3)CCCCC2)c2ccccc2c1=O`, the % elongation is 106% and the z-score was -0.2.

For the molecule `CCOc1ccc(C(=O)NCC2(N3CCOCC3)CCCCC2)cc1`, the % elongation stood at 109% and the z-score was -0.5.

In the case of `CC(C)(C)OC(=O)N1CCC(Nc2ccc(OC(F)(F)F)cc2)CC1`, the % elongation came to 98% and the z-score turned out to be 0.2.

`CCCOc1cccc(C(=O)NCC2(N3CCOCC3)CCCCC2)c1`: the % elongation came out at 104% and the z-score is -1.3.

For the molecule `O=C(NCC1(N2CCOCC2)CCCCC1)c1ccc(Cl)cc1`, the % elongation turned out to be 92% and the z-score was -2.2.

Consider `O=C(NCC1(N2CCOCC2)CCCCC1)c1ccc2nc[nH]c2c1`, for which the % elongation was determined as 109% and the z-score is 0.2.

Regarding `O=C1CCN(Cc2ccccc2)CC1`, the % elongation came out at 104% and the z-score amounted to 1.1.

Regarding `CCOC(=O)N1CCC(Nc2ccc(F)cc2)CC1`, the % elongation was 101% and the z-score came to 0.2.

For `COc1ccccc1C(=O)NCC1(N2CCOCC2)CCCCC1`, the % elongation stood at 114% and the z-score was determined as 0.4.

In the case of `CCOC(=O)N1CCC(Nc2cccc(C)c2)CC1`, the % elongation was found to be 102% and the z-score was -0.6.

On to `COc1ccc(C(=O)NCC2(N3CCCCC3)CCCCC2)cc1`, for which the % elongation turned out to be 101% and the z-score amounted to 0.4.

For `CCCN1CCC(Nc2ccc(OC)c(OC)c2)CC1`, the % elongation came out at 102% and the z-score is -0.2.

As for `CC1CN(CCc2ccccc2)CCC1=O` (configuration not stated), the % elongation came to 115% and the z-score stood at 0.3.

In the case of `Cc1cnc(C(=O)NCC2(N3CCCCC3)CCCCC2)cn1`, the % elongation was found to be 97% and the z-score was determined as 0.5.

Turning to `N#CC1(Nc2ccccc2)CCN(Cc2ccccc2)CC1`, the % elongation was determined as 102% and the z-score was -0.1.

Regarding `CCOc1ncccc1C(=O)NCC1(N(C)C)CCCCC1`, the % elongation was 105% and the z-score was -0.1.

For the molecule `COc1cc(C(=O)NCC2(N3CCOCC3)CCCCC2)cc(OC)c1OC`, the % elongation was 113% and the z-score was -0.3.

`CCOc1ncccc1C(=O)NCC1(N2CCCCC2)CCCCC1`: the % elongation was found to be 107% and the z-score was determined as 0.

As for `O=C(NCC1(N2CCCCC2)CCCCC1)c1n[nH]c2ccccc12`, the % elongation stood at 104% and the z-score is -0.8.

Regarding `CN(C)C1(CNC(=O)c2ccc(C(C)(C)C)cc2)CCCCC1`, the % elongation was determined as 109% and the z-score came out at 0.4.

As to `CCN1CCC(Nc2ccc(F)cc2)CC1`, the % elongation turned out to be 103% and the z-score worked out at 0.2.

Consider `CC(C)(C)c1ccc(C(=O)NCC2(N3CCOCC3)CCCCC2)cc1`, for which the % elongation worked out at 111% and the z-score worked out at 0.2.

Consider `O=c1[nH]c2ccccc2n1C1CCN(CCCC(c2ccc(F)cc2)c2ccc(F)cc2Cl)CC1` (configuration not stated), for which the % elongation was found to be 103% and the z-score was -0.4.

Regarding `CC1CN(CCc2ccccc2)C(C)CC1=O` (configuration not stated), the % elongation was determined as 115% and the z-score was 0.8.

Take `CN(C)c1ccc(C(=O)NCC2(N3CCCCC3)CCCCC2)cc1`: the % elongation amounted to 103% and the z-score was 0.6.

With `Cc1ccccc1C(=O)NCC1(N(C)C)CCCCC1`, the % elongation was 103% and the z-score was found to be 0.

With `O=C(NCC1(N2CCOCC2)CCCCC1)c1ccc([N+](=O)[O-])cc1`, the % elongation is 112% and the z-score is -0.1.

Consider `O=C(NCC1(N2CCOCC2)CCCCC1)c1ccccc1[N+](=O)[O-]`, for which the % elongation amounted to 108% and the z-score was -0.1.

As for `O=C(NCC1(N2CCOCC2)CCCCC1)c1cc2ccccc2cc1O`, the % elongation was determined as 94% and the z-score was -0.4.

In the case of `CCCN1CCC(Nc2cc(OC)cc(OC)c2)CC1`, the % elongation worked out at 103% and the z-score was 0.1.

For `O=C(NCC1(N2CCOCC2)CCCCC1)c1ccccc1`, the % elongation stood at 106% and the z-score was -0.6.

For the molecule `Cc1c(C(=O)NCC2(N3CCOCC3)CCCCC2)oc2c(Cl)cccc12`, the % elongation amounted to 112% and the z-score was found to be 0.1.

Regarding `NC(=O)C1(Nc2ccccc2)CCN(Cc2ccccc2)CC1`, the % elongation was determined as 106% and the z-score was determined as 0.5.

On to `CN1CCC(Nc2ccc(F)cc2)CC1`, for which the % elongation came out at 105% and the z-score was -0.2.

With `O=C1CCN(CCc2ccccc2)CC1`, the % elongation came to 106% and the z-score was determined as 0.7.

Source of the values: PubChem BioAssay AID588519 (ICCB-Longwood Screening Facility, Harvard Medical School, 2011).
